# According to the supplement of paper PMC7666118:
# Protein sequences, listed by entry. Tags and fused reporters are not part of them. Lines headed by an entry give the natural chain unless they say otherwise; changes in a name come on top.
# UniProt P57088: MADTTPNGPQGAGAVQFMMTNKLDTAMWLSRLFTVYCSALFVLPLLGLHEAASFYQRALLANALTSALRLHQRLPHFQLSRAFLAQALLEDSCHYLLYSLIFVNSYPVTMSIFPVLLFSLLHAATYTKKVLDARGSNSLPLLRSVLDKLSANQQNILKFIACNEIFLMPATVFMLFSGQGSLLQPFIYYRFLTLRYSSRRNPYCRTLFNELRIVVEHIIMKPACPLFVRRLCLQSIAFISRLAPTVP
# UniProt P55061, whole entry: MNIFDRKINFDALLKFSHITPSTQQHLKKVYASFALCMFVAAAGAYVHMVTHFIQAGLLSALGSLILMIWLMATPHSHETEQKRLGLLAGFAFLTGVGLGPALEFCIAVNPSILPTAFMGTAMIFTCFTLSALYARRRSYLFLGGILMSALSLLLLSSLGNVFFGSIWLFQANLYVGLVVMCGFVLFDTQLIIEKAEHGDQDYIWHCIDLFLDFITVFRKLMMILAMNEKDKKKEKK
# UniProt Q5SWH9: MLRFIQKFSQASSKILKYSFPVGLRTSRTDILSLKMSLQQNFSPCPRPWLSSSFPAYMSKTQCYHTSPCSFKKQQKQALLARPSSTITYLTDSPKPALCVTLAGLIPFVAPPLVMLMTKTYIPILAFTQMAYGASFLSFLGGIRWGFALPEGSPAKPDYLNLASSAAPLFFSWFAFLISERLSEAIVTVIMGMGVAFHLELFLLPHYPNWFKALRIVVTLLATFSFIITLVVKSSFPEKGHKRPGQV
# UniProt Q92545: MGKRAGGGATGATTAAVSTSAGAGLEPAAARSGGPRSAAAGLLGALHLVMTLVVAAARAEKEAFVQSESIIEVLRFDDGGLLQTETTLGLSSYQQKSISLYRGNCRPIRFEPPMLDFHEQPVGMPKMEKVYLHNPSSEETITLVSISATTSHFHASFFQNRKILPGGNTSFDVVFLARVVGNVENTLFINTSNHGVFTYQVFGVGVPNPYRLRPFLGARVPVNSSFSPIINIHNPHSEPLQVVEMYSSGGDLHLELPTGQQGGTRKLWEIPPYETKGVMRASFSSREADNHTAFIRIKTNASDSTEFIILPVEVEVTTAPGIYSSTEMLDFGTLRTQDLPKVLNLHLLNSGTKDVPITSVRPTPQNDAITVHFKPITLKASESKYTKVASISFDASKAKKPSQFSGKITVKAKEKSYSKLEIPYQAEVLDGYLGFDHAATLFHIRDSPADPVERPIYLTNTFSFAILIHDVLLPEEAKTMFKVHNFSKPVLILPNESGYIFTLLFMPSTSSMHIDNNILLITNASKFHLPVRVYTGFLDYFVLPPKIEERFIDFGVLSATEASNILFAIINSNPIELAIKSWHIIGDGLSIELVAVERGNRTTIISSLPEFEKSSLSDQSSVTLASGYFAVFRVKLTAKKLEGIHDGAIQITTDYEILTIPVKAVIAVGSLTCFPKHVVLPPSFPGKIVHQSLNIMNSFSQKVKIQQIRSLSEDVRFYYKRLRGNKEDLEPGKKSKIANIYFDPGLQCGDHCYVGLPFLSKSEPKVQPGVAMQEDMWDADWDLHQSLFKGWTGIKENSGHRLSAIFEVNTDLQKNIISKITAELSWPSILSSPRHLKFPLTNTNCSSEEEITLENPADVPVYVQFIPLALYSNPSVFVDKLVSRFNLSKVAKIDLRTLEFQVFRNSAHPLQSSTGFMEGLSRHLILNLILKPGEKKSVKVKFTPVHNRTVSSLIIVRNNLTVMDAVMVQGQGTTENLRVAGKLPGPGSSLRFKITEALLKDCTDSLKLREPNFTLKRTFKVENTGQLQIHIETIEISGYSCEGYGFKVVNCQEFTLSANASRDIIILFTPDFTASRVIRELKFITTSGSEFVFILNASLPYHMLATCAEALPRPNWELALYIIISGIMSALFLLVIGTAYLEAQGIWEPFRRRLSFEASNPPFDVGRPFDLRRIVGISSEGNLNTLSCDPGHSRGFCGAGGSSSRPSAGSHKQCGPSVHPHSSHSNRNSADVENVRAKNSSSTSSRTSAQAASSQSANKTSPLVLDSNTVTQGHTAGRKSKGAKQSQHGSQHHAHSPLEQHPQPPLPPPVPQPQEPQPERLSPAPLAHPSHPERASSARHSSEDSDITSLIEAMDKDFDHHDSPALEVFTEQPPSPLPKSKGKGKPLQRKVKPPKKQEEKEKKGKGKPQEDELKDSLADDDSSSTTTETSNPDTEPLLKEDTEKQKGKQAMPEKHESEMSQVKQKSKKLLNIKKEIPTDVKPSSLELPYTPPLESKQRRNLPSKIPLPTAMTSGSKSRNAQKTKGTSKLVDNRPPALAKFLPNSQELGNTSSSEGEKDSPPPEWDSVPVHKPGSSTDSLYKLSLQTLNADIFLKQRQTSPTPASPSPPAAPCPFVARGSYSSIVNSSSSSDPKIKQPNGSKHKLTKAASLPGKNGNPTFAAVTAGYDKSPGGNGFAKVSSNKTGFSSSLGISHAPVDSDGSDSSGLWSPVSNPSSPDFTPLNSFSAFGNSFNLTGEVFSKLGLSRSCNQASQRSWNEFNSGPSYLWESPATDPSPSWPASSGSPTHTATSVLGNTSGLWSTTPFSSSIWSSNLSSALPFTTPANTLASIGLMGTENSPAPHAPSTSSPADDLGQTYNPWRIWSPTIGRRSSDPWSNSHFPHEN
# UniProt Q13625: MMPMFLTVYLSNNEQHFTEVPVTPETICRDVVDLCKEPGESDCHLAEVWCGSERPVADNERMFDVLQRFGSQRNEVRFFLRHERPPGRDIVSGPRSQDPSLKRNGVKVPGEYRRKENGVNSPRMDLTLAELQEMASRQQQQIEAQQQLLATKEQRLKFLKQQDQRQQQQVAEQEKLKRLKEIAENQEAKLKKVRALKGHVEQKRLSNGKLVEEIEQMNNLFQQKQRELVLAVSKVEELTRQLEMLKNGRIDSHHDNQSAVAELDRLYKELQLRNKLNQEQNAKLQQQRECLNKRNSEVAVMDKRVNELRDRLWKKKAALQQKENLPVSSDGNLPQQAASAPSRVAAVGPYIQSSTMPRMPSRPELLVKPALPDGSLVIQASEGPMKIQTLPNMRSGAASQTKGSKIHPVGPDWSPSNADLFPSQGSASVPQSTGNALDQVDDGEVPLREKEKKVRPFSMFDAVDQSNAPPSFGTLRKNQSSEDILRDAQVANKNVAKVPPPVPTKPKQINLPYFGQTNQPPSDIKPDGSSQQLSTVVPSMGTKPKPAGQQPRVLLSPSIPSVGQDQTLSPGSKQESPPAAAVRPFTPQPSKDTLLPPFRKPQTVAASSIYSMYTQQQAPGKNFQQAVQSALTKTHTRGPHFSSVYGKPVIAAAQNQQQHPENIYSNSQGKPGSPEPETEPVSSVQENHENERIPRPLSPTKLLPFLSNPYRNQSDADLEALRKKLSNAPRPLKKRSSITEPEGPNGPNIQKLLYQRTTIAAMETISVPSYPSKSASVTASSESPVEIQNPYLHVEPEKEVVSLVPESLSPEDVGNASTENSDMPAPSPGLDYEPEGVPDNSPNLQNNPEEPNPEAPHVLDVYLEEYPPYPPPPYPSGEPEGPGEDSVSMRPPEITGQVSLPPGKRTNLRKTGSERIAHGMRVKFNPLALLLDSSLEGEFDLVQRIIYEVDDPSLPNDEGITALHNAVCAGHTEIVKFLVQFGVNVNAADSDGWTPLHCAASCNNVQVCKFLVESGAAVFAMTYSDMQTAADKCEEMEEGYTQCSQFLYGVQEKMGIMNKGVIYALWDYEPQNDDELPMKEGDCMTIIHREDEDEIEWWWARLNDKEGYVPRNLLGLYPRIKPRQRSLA
# UniProt Q15785: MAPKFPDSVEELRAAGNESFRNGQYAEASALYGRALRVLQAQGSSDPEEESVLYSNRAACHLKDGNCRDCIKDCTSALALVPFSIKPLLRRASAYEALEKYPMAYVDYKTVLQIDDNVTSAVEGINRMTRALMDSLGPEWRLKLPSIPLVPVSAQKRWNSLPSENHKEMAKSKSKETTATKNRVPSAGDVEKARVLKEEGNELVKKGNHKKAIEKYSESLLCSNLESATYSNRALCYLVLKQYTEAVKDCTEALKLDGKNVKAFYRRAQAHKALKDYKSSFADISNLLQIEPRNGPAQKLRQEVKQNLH
# UniProt Q9BVK8: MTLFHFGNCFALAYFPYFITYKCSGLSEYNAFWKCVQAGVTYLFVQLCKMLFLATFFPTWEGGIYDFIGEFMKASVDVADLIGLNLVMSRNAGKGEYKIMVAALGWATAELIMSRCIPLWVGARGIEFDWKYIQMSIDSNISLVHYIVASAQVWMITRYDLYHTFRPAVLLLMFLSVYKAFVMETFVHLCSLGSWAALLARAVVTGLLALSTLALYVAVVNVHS
# UniProt Q9H813: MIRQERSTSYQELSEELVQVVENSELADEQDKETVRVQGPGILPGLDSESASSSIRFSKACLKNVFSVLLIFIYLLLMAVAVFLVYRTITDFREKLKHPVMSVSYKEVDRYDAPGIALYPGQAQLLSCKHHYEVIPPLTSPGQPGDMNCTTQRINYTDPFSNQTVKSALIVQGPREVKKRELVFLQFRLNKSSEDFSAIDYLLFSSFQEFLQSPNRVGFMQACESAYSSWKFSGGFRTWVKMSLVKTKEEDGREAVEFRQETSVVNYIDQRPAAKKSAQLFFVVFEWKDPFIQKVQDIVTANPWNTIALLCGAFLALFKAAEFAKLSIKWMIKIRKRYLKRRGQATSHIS
# UniProt Q9H061: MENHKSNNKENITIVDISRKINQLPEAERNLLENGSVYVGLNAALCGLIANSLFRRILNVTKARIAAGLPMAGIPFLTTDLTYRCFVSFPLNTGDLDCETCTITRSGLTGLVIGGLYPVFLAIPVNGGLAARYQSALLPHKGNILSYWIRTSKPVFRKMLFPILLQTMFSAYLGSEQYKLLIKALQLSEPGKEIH
# UniProt Q6PL24: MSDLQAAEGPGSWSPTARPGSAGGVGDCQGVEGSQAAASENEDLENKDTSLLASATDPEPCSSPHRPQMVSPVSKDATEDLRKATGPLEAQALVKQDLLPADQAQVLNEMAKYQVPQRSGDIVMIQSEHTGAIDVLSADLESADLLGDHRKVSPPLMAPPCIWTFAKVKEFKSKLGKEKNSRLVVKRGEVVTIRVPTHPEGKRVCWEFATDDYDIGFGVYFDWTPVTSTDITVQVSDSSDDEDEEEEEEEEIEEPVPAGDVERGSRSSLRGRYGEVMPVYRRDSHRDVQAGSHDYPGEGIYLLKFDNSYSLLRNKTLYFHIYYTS
# UniProt O14773: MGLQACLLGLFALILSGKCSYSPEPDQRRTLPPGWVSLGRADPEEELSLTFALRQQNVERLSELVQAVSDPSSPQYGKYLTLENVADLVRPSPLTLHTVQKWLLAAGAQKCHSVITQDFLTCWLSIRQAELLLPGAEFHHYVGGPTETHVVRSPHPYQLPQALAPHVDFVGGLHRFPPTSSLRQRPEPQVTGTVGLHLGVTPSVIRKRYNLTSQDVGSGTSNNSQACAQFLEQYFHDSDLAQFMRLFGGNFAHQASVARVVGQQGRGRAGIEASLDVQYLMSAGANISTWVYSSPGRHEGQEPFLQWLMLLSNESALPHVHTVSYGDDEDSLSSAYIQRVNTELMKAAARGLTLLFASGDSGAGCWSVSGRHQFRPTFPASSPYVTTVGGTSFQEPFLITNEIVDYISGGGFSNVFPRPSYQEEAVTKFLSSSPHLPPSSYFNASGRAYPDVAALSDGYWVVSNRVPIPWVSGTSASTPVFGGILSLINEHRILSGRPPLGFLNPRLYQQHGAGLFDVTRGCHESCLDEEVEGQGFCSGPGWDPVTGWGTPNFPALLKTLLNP
# UniProt Q96HH6: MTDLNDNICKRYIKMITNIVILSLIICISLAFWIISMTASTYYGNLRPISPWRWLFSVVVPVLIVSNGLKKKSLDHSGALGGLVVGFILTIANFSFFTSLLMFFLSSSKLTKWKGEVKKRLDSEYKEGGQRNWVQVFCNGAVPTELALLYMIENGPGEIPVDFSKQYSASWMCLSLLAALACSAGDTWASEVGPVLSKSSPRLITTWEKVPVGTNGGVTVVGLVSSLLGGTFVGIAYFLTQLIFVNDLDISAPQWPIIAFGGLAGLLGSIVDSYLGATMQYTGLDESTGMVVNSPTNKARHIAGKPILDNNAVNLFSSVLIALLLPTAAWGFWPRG
# UniProt P37802: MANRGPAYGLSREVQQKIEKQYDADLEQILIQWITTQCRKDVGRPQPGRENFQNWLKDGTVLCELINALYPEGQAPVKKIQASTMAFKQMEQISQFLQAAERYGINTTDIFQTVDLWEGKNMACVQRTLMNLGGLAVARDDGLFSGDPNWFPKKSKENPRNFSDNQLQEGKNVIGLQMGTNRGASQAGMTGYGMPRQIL
# UniProt Q5J8M3, whole entry: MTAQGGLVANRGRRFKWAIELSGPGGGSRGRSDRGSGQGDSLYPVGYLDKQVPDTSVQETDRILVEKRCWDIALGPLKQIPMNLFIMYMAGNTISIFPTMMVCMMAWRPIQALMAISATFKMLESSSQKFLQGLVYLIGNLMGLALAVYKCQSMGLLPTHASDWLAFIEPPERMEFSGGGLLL
# The list shows a part of the results.
# Compound: COc1ccc(Cn2ccc3ccc(C(=O)NO)cc32)cc1
# Assay: dose-dependent thermal stabilisation call (2D-TPP, DLPTP, 10% FDR) (binary (1 = stabilised)); higher = stabilised by the compound
# Settings: system: HL-60 intact cells; concentration range 0.04-10 µM
row,Target,dose-dependent thermal stabilisation call
1,TMEM70 (UniProt Q9BUB7),inactive: 0
2,TBC1D10B (UniProt Q4KMP7),inactive: 0
3,TMEM33 (UniProt P57088),inactive: 0
4,TMBIM6 (UniProt P55061),inactive: 0
5,TMEM194A (UniProt O14524),inactive: 0
6,TMEM161B (UniProt Q8NDZ6),inactive: 0
7,TMEM69 (UniProt Q5SWH9),inactive: 0
8,TMEM131 (UniProt Q92545),inactive: 0
9,TP53BP2 (UniProt Q13625),inactive: 0
10,TOMM34 (UniProt Q15785),inactive: 0
11,TMEM147 (UniProt Q9BVK8),inactive: 0
12,TOX4 (UniProt O94842),inactive: 0
13,TM2D3 (UniProt Q9BRN9),inactive: 0
14,TMEM206 (UniProt Q9H813),inactive: 0
15,TMEM59 (UniProt Q9BXS4),inactive: 0
16,TMEM41A (UniProt Q96HV5),inactive: 0
17,TMEM126A (UniProt Q9H061),inactive: 0
18,TBC1D22B (UniProt Q9NU19),inactive: 0
19,TMED8 (UniProt Q6PL24),inactive: 0

# Shown with tabs: part of the list above.
row	Target	dose-dependent thermal stabilisation call
2	TBC1D10B (UniProt Q4KMP7)	inactive: 0
3	TMEM33 (UniProt P57088)	inactive: 0

# (next part)

row,Target,dose-dependent thermal stabilisation call
1,TBC1D1 (UniProt Q86TI0),inactive: 0
2,TMUB2 (UniProt Q71RG4),inactive: 0
3,TLK2 (UniProt Q86UE8),inactive: 0
4,TMEM41B (UniProt Q5BJD5),inactive: 0
5,TPP1 (UniProt O14773),inactive: 0
6,TPI1 (UniProt P60174),inactive: 0
7,TMEM87A (UniProt Q8NBN3),inactive: 0
8,TPD52L2 (UniProt O43399),inactive: 0
9,TAPT1 (UniProt Q6NXT6),inactive: 0
10,TNFAIP8 (UniProt O95379),inactive: 0
11,TATDN3 (UniProt Q17R31),inactive: 0
12,TM7SF2 (UniProt O76062),inactive: 0
13,TMEM219 (UniProt Q86XT9),inactive: 0
14,TGS1 (UniProt Q96RS0),inactive: 0
15,TOP1 (UniProt P11387),inactive: 0
16,TMEM19 (UniProt Q96HH6),active: 1
17,TAGLN2 (UniProt P37802),inactive: 0
18,TMEM85 (UniProt Q5J8M3),inactive: 0
19,THOC5 (UniProt Q13769),inactive: 0
